Source: publication PMC9253056

Amino acid sequences for entries named in this document (tags omitted).
UniProt O15550: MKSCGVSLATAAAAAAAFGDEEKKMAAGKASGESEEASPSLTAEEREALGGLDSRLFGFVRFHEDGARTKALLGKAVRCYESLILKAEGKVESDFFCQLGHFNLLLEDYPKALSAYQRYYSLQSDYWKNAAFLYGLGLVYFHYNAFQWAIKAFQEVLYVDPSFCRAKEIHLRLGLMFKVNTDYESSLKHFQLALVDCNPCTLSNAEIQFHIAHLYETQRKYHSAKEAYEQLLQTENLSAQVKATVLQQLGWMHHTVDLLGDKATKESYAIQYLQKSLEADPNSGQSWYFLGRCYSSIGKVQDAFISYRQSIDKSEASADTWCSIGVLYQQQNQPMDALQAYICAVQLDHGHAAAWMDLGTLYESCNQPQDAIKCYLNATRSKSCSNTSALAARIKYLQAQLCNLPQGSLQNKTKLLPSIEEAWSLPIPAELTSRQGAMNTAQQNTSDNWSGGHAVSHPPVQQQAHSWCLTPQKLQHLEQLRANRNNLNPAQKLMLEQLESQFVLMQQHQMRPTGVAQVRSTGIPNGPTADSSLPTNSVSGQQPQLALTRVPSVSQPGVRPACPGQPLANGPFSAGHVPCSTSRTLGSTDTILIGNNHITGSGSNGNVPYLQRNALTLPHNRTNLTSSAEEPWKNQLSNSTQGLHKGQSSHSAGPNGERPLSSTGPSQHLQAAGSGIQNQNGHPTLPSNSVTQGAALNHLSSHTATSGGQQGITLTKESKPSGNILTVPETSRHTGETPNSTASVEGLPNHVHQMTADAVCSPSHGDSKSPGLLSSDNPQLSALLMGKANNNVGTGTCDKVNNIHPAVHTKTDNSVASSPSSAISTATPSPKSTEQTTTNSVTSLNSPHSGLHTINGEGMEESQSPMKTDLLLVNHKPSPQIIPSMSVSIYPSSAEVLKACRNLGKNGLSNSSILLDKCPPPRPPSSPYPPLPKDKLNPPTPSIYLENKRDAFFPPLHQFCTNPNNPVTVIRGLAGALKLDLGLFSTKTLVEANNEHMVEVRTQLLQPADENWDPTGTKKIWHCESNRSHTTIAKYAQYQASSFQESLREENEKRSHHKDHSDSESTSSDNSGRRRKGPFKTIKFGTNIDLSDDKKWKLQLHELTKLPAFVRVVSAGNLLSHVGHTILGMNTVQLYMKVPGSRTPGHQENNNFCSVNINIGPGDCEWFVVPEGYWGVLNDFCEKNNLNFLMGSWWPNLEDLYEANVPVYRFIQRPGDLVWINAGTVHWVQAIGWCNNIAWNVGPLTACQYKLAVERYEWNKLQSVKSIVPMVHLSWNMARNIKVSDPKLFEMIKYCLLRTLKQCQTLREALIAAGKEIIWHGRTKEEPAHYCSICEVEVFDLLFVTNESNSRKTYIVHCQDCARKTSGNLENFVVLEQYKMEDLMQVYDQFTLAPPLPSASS
UniProt Q9Y508: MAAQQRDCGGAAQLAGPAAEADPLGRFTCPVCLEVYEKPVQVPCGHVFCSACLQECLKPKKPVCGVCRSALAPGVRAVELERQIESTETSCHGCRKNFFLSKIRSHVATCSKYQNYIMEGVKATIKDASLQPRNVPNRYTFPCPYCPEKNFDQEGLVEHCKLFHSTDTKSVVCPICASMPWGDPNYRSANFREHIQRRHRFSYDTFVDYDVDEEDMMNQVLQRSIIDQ

Target: UTX (ubiquitously transcribed tetratricopeptide repeat on chromosome X), overexpressed (human) (UniProt O15550)
Assay: affinity purification with mass spectrometry; immunoprecipitation from 293 T cells transfected with UTX, followed by mass spectrometric analysis

binding: binds
Substance: RNF114, found by mass spectrometry in the UTX immunoprecipitate of 293 T cells (from UniProt Q9Y508 1-228)

Results are given in words; binding and its absence hold for the method and conditions named. Binding seen in cells or lysates may run through a third protein. Here binding means that the protein was enriched with, or labelled near, the bait; the list need not be complete.
